42 sequences from publication PMC7819943, “Rice protein-binding microarrays: a tool to detect cis-acting elements near promoter regions in rice” can be followed below.

Chains of the proteins cited; added tags and fusions are not shown.
UniProt Q0JBA9, entry or part of it: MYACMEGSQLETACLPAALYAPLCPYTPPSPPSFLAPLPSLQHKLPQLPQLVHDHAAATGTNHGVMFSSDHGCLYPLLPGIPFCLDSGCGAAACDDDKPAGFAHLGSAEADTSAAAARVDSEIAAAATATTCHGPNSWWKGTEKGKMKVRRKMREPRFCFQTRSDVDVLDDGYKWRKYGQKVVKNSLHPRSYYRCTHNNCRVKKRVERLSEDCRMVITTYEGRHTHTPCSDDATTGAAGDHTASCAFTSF

Some of the results follow.

The experiment has as its target OsWRKY34 (Oryza sativa, UniProt Q0JBA9 1-250). In words: protein-binding microarray (RPBM); PBS, 2% BSA, 51.3 ng/ul salmon testes DNA, 50 uM zinc acetate, 200 nM TF, 25 C, 1 h; high values mean tight binding. The conditions noted are these: protein: recombinant; tags: N-terminal polyhistidine and DsRed monomer fusion (pET32a); label: CyDye5-dUTP incorporated in the synthesized complementary strand; 3' TTTTT single-stranded linker to array surface; dsDNA, one strand shown. In short, it runs like this: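 Transcription factors were each fused at the N-terminus to a polyhistidine tag plus DsRed and expressed in E. coli BL21-CodonPlus before Ni–NTA purification. Binding to a double-stranded custom Agilent array was carried out with 200 nM protein at 25 °C for 1 h in PBS, 2% BSA, salmon testes DNA and 50 µM zinc acetate. The binding signal is per-feature fluorescence intensity, in arbitrary units, on an Axon 4000B scanner.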
On to “CTGGCCTCTAATGCTTTCCTCTTTTATCATTAGTAGTTACCGGAGTCACCTAGTGCAG”, for which the binding signal was 9510 fluorescence intensity (a.u.).

“ATCCTCACTCCTTTCTTCTTTCCTTTCCCCTCTCTTCACCCGGAGTCACCTAGTGCAG”: the binding signal is 9280 fluorescence intensity (a.u.).

With “GCTGTTTCGCCGCACCCATCGAAATCTCACCCGCTCTCTCCGGAGTCACCTAGTGCAG”, the binding signal is 10100 fluorescence intensity (a.u.).

With “GTAGGTGTGGTCAGTTTGGACTATATATATGTGATCCCTACGGAGTCACCTAGTGCAG”, the binding signal is 8070 fluorescence intensity (a.u.).

Regarding “CTCCTTTTATCGCACGTTCTCGATCCAACGGTTCCTGTGACGGAGTCACCTAGTGCAG”, the binding signal is 10300 fluorescence intensity (a.u.).

Take “GGGTTATGTTTCATTTGTATTATTTTCTTAATTCTTACACCGGAGTCACCTAGTGCAG”: the binding signal is 12700 fluorescence intensity (a.u.).

As to “AACCGTATTGCTGACCAGACCATTTTTTGCCACCATTAGTCGGAGTCACCTAGTGCAG”, the binding signal was 11100 fluorescence intensity (a.u.).

Turning to “GTTTTTTTTTTGTTTGATTTTGATAGGAGTACATCTGTACCGGAGTCACCTAGTGCAG”, the binding signal was 8630 fluorescence intensity (a.u.).

Regarding “ATCTTATCTTTGGCCTGGTTTAGTTCCCAATTTTTTTCTTCGGAGTCACCTAGTGCAG”, the binding signal was 10700 fluorescence intensity (a.u.).

Take “GCTCACCCAGCCACCCACTCACACACACCCTCACATCTGACGGAGTCACCTAGTGCAG”: the binding signal was 8350 fluorescence intensity (a.u.).

Regarding “TCACATCCCCTCCTAGGTTGTTTTTTTTTTTGGGATGAACCGGAGTCACCTAGTGCAG”, the binding signal is 10100 fluorescence intensity (a.u.).

Consider “TTTGTCTATCCTGCCGGCTTTTGGCCTCTGCACGGCGCGCCGGAGTCACCTAGTGCAG”, for which the binding signal was 13300 fluorescence intensity (a.u.).

In the case of “AAAGGGTGGTGGTTGGGAGTTTTTGAGACGAACACGTGTCCGGAGTCACCTAGTGCAG”, the binding signal was 8690 fluorescence intensity (a.u.).

With “TATGGGTCTTTTTATCACGTACTTACCTCCGTCCTATAAACGGAGTCACCTAGTGCAG”, the binding signal is 11700 fluorescence intensity (a.u.).

As for “CGCTTTGGGTTTTTATATGGACTCTTCTCTCAATATTCCTCGGAGTCACCTAGTGCAG”, the binding signal was 8640 fluorescence intensity (a.u.).

“ATTTCTTGGAGACCGTTGACTCCTCTCTCTCTATTTCCATCGGAGTCACCTAGTGCAG”: the binding signal was 12400 fluorescence intensity (a.u.).

With “GTCCGCCGCCGAGAATGCAAGCCGCCACCACCACCACCACCGGAGTCACCTAGTGCAG”, the binding signal is 8490 fluorescence intensity (a.u.).

In the case of “TCCATTTGTCTCTGCTTCAACCGCACTCCTCCCGCCTCCACGGAGTCACCTAGTGCAG”, the binding signal was 8050 fluorescence intensity (a.u.).

As to “TTCTCTGGTCGCCTACATATCCCCTGCCCCTCCTCTCCACCGGAGTCACCTAGTGCAG”, the binding signal is 9170 fluorescence intensity (a.u.).

In the case of “TGGGATCAATTACTAGTGGTTTATATTTAAGTGGGGTCATCGGAGTCACCTAGTGCAG”, the binding signal is 10900 fluorescence intensity (a.u.).

With “GTGTGTGAGGTGGGGAATTGGGAGCAGTTGATCACCGGGGCGGAGTCACCTAGTGCAG”, the binding signal was 8970 fluorescence intensity (a.u.).

As for “AAAATAGGCCAATAGGGTGTTGAGAGAAAAGGAGATATATCGGAGTCACCTAGTGCAG”, the binding signal was 17500 fluorescence intensity (a.u.).

For the sequence “ATGGTGGGTATTTCTCTTCAGGCCATTCCTGCAGAGCAAACGGAGTCACCTAGTGCAG”, the binding signal is 8460 fluorescence intensity (a.u.).

In the case of “GTTTTCGGGTTAAGGGGTATGAATTAGATTCGGCGTACAACGGAGTCACCTAGTGCAG”, the binding signal is 11500 fluorescence intensity (a.u.).

Take “AGAAGGGAAGGGGAGGGGAGGGCGGGACGCCGGCCGGAGCCGGAGTCACCTAGTGCAG”: the binding signal is 10200 fluorescence intensity (a.u.).

“TTTTCTTGTGTGTTCCCTACCATCAATTTTTTTCTAATTACGGAGTCACCTAGTGCAG”: the binding signal was 8400 fluorescence intensity (a.u.).

Take “ACGTCCTACAAAGTGTGGTAGTTTCACTCTGTTTATTTTTCGGAGTCACCTAGTGCAG”: the binding signal was 8330 fluorescence intensity (a.u.).

With “TCGTGCATGCTGCATACTACTCTGTGCTACAGTACATATACGGAGTCACCTAGTGCAG”, the binding signal was 8200 fluorescence intensity (a.u.).

In the case of “AGCAGGGGAGGTTGGGCTCGTTGTACTTCGGCGGGAGCGGCGGAGTCACCTAGTGCAG”, the binding signal is 8120 fluorescence intensity (a.u.).

Consider “AAAGAGCCCGGATATAGCGCCTTCGTTCTTCGTCGGGTCACGGAGTCACCTAGTGCAG”, for which the binding signal is 9640 fluorescence intensity (a.u.).

Take “AACCACCACCACCGCCTCCGCTCTATCAACCCTCGCTCCGCGGAGTCACCTAGTGCAG”: the binding signal was 10900 fluorescence intensity (a.u.).

On to “TTTTGGATTTTGTTTCATTTTTTTTACATGCATTGGATTACGGAGTCACCTAGTGCAG”, for which the binding signal was 8120 fluorescence intensity (a.u.).

Turning to “TGCTTTCACTCTGTTGGAATTCTCAAGGCTGTTATTTTCACGGAGTCACCTAGTGCAG”, the binding signal is 10200 fluorescence intensity (a.u.).

In the case of “GTGTCTCCTCTCCTCTTCCTAACCTTCTCACTGATTAACACGGAGTCACCTAGTGCAG”, the binding signal is 13100 fluorescence intensity (a.u.).

As for “AGTTGTCGTCGCTTCAACCGCGTTGCCGCCATCACAGTCACGGAGTCACCTAGTGCAG”, the binding signal is 8520 fluorescence intensity (a.u.).

As to “GACGACTGCGAGCCTCTCCTTCCCTTCCACCTTTTTTCTTCGGAGTCACCTAGTGCAG”, the binding signal was 11300 fluorescence intensity (a.u.).

Regarding “CACCCTTATTTTGTTGGGATTCTCCTGATCTATTTTTAGACGGAGTCACCTAGTGCAG”, the binding signal is 8470 fluorescence intensity (a.u.).

For “GGACGCCGGATATCTGGTTTTGCGGTTTGAGGATGTTTTTCGGAGTCACCTAGTGCAG”, the binding signal is 9530 fluorescence intensity (a.u.).

“AGTGCTGGCTTTGATGGTATATATGGTTTGCGCCGACTCACGGAGTCACCTAGTGCAG”: the binding signal was 10400 fluorescence intensity (a.u.).

Turning to “GGGGTTAGTTGTCCGTTTTGCATAGTTGGGGATAAAAAATCGGAGTCACCTAGTGCAG”, the binding signal was 18500 fluorescence intensity (a.u.).

In the case of “AACTTTTAACTTTTCCATCACATCAAAACTTTCCTACACACGGAGTCACCTAGTGCAG”, the binding signal is 8380 fluorescence intensity (a.u.).

Consider “CTTCCCACTTTAGTTGTTTGCGAATTATAAGGGAGCACTTCGGAGTCACCTAGTGCAG”, for which the binding signal was 8620 fluorescence intensity (a.u.).
